The record followed here is publication PMC5773591, “Structural basis of trans-synaptic interactions between PTPδ and SALMs for inducing synapse formation” (Nature Communications, 2018).

No constants are given. Whether binding was seen depends on the method and setting. For part of these data: Binding calls can cover weak binding; strength is not graded here. Tags and fused reporters may be left off the sequences shown.

The target in assay [1] is T1, mouse SALM2 LRR–Ig-His6 (residues 32–390) (mouse) (UniProt Q2WF71).
T1 sequence: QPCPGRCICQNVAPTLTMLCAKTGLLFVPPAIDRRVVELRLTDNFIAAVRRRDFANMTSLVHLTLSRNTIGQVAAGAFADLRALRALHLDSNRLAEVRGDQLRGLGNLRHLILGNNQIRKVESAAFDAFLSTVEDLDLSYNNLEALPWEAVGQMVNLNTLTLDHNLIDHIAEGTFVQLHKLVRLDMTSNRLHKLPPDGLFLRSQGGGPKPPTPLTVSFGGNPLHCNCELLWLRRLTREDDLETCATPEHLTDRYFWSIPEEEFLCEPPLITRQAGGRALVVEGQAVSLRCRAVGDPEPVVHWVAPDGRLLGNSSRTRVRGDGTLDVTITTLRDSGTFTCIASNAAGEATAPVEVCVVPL
The assay is described as follows: crystal structure; co-crystals of PTPδ Ig1–Fn1 with SALM5 LRR–Ig (70 µM each) and of PTPδ Ig1–Ig3 with SALM2 LRR–Ig (57 µM each), sitting drop vapor diffusion, 20 °C; two complexes in the asymmetric unit (2:2); both purified.

For assay [2], the target named is T2, human SALM5 LRR–Ig-His6 (residues 18–378) (human) (UniProt Q96NI6).
T2 sequence: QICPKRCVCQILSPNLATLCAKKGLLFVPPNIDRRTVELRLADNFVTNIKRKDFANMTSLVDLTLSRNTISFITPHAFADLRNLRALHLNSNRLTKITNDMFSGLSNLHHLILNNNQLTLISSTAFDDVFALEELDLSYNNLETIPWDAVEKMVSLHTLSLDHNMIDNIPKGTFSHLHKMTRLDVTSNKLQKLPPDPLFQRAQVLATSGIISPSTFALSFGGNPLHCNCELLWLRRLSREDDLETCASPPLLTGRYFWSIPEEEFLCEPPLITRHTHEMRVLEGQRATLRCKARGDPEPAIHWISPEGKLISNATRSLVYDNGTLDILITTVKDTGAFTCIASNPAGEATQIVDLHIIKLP
Described as above.

In assay [3] the target is T2, human SALM5 LRR–Ig-His6 (residues 18–378) (human). The assay is described as follows: SPR; Biacore T200, 25 °C, 10 mM Hepes-Na (pH 7.5), 200 mM NaCl, 0.05% Tween20; SALM5 proteins immobilised on a CM5 chip by amino coupling; PTPδ proteins injected as analytes (0.1–260 μM); both purified. In general terms: In SPR one partner is held on a chip, and binding of the other changes the refractive index at the surface.

On to “mouse PTPδ Ig1–Ig3 (residues 28–325) (domain or fragment)”, for which the binding entry in assay [1] is on record as “binds”.

Turning to “mouse PTPδ Ig1–Fn1 (A9B+)-His6 (domain or fragment)”, in assay [2], the binding entry is recorded as “binds”.

Turning to “mouse PTPδ Ig1–Fn1 (A9B+)-His6 L141A (domain or fragment)”, the binding entry in assay [3] is listed as “no binding (tested: analyte series 0.1–260 μM (methods))”.
